Results published in patent publication US5079366 (dated 1992).

Assay: general procedure: solution-phase peptide synthesis; DCC/HOBt

Substance	step yield (late stage modification step) [%]	step yield (coupling step) [%]
(S)-2-[N-(tert-Butoxycarbonyl)-L-tyrosyl]amino-6-(3-carbamoyl-1-pyridinium)hexanoylglycyl-L-phenylalanyl-L-leucine ethyl ester chloride	37.9	
(S)-2-(L-Tyrosyl)amino-6-(3-carbamoyl-1-pyridinium)hexanoylglycyl-L-phenylalanyl-L-leucine ethyl ester chloride hydrochloride	78.6	
O-Benzyl-N-(tert-butoxycarbonyl)-L-tyrosyl-N^ε -benzyloxycarbonyl-L-lysylglycyl-L-phenylalanyl-L-leucine ethyl ester		78.9
